Source: PubChem BioAssay AID504784 (Drosophila RNAi Screening Center, 2011)
The screen tested about 17,000 reagents; shown is an unselected part of those that have a named target and a result. 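Each column is one replicate's B-score; the combined score over replicates was not deposited, so single values may mislead.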 A plus sign joins genes that one reagent is predicted to hit. Not all columns of the deposit are shown. Reagent sequences are not shown.

- Assay: 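Fly genes whose silencing alters how much lipid cells keep in droplets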 (primary screen)
- Cells: Drosophila Kc167 embryonic cells
- Reagent: long dsRNA against Drosophila genes, about 250 ng dsRNA per well
- Time to read-out: 4 days
- Conditions: cells fed 400 µM oleic acid bound to BSA
- Measured: 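Microscope images give a droplet-to-nucleus area ratio, taken as log and converted to a screen-wide B-score; higher values mean greater lipid storage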
- Scale: droplet/nuclear area B-score: higher = more stored lipid (overstorage)

The first 7 entries as a preview:
no.	target gene	dsRNA	droplet/nuclear area B-score, replicate 1
1	CG14118	DRSC10122	0.537
2	GluRS-m (Glutamyl-tRNA synthetase, mitochondrial)	DRSC10431	0.462
3	Osi11 (Osiris 11)	DRSC12282	0.116
4	Arp5 (Actin-related protein 5)	DRSC16350	-0.721
5	Vps13B (Vacuolar protein sorting 13B)	DRSC15060	0.11
6	Sec61beta (Sec61 beta subunit)	DRSC07548	-1.87
7	Sec61beta (Sec61 beta subunit)	DRSC21512	-1.08

The list itself, from the first entry:
no.	target gene	dsRNA	droplet/nuclear area B-score, replicate 1
1	CG14118	DRSC10122	0.537
2	GluRS-m (Glutamyl-tRNA synthetase, mitochondrial)	DRSC10431	0.462
3	Osi11 (Osiris 11)	DRSC12282	0.116
4	Arp5 (Actin-related protein 5)	DRSC16350	-0.721
5	Vps13B (Vacuolar protein sorting 13B)	DRSC15060	0.11
6	Sec61beta (Sec61 beta subunit)	DRSC07548	-1.87
7	Sec61beta (Sec61 beta subunit)	DRSC21512	-1.08
8	Vha16-2 (Vacuolar H[+] ATPase 16kD subunit 2)	DRSC10873	0.327
9	Sec3 (Secretory 3)	DRSC10384	-0.157
10	CG3062	DRSC18572	0.658
11	CG9109	DRSC03139	0.0303
12	CG17361	DRSC10266	-1.55
13	CG11997	DRSC14464	-0.462
14	CG31806	DRSC02787	1.1
15	cyst (cysts)	DRSC02023	-3.44
16	CG4286	DRSC04459	-0.452
17	CG14454	DRSC11711	-0.478
18	yellow-d2	DRSC04591	-0.251
19	CG13002	DRSC19521	-0.25
20	CG4957	DRSC02793	-1.57
21	AcCoAS (Acetyl Coenzyme A synthase)	DRSC11477	2.33
22	AcCoAS (Acetyl Coenzyme A synthase)	DRSC11603	3.77
23	AcCoAS (Acetyl Coenzyme A synthase)	DRSC22850	-0.215
24	CG12446	DRSC20618	0.949
25	Obp83ef (Odorant-binding protein 83ef)	DRSC12268	1.28
26	CG17580	DRSC06683	0.148
27	CG43345	DRSC03164	-0.316
28	CG12499	DRSC14521	0.015
29	CG18636	DRSC02685	-1.31
30	dpr13 (defective proboscis extension response 13)	DRSC06160	-0.881
31	dpr13 (defective proboscis extension response 13)	DRSC06464	-2.05
32	RhoGAP1A (Rho GTPase activating protein at 1A)	DRSC20649	-0.757
33	RhoGAP1A (Rho GTPase activating protein at 1A)	DRSC20651	0.196
34	CG6628	DRSC10679	-0.28
35	nw (narrow)	DRSC06749	-2.83
36	nw (narrow)	DRSC06896	2.12
37	Npc2a (Niemann-Pick type C-2a)	DRSC00698	-0.182
38	yki (yorkie)	DRSC04437	-1.16
39	eIF4H2 (eukaryotic translation initiation factor 4H2)	DRSC14582	0.0212
40	E(spl)m8-HLH (Enhancer of split m8, helix-loop-helix)	DRSC16654	1.03
41	Cpn (Calphotin)	DRSC16613	8.2
42	CG13996	DRSC02328	1.7
43	Ptip (PAX transcription activation domain interacting protein)	DRSC10660	1.48
44	Ptip (PAX transcription activation domain interacting protein)	DRSC11048	1.25
45	CG3287 (retired record)	DRSC04991	-0.0785
46	alpha-Est7 (alpha-Esterase-7)	DRSC12619	0.528
47	Dscam2 (Down syndrome cell adhesion molecule 2)	DRSC08869	1.7
48	Dscam2 (Down syndrome cell adhesion molecule 2)	DRSC10198	-1.4
49	Dscam2 (Down syndrome cell adhesion molecule 2)	DRSC11018	0.0647
50	Dscam2 (Down syndrome cell adhesion molecule 2)	DRSC11019	-0.215
51	Dscam2 (Down syndrome cell adhesion molecule 2)	DRSC22526	1.9
52	Twdlalpha (Tweedlealpha)	DRSC19914	-0.558
53	DhpD (Dihydropterin deaminase)	DRSC12288	0.807
54	Arp6 (Actin-related protein 6)	DRSC19326	2.89
55	CG14313	DRSC14792	0.44
56	CG6329	DRSC06976	-0.435
57	Rbf2 (Retinoblastoma-family protein 2)	DRSC16816	0.811
58	Jhbp1 (Juvenile hormone binding protein 1)	DRSC12167	0.00875
59	dbe (dribble)	DRSC00811	0.265
60	CG31804	DRSC22728	0.224
61	Dh31-R (Diuretic hormone 31 Receptor)	DRSC06647	1.83
62	Dh31-R (Diuretic hormone 31 Receptor)	DRSC06669	-0.353
63	U2A	DRSC06445	-2.92
64	Sas10 (Something about silencing 10)	DRSC18355	-1.16
65	Ada1-1 + Ada1-2	DRSC01220	0.586
66	Ada1-1 + Ada1-2	DRSC01222	1.4
67	Or92a (Odorant receptor 92a)	DRSC16771	0.0427
68	E2f2 (E2F transcription factor 2)	DRSC03320	-1.07
69	Nup62 (Nucleoporin 62kD)	DRSC06970	-2.33
70	Polr3B (RNA polymerase III subunit B)	DRSC07536	2.04
71	CG43861	DRSC02308	-0.981
72	CG18294 + 825-Oak + CG32214 + 2 more	DRSC22210	-0.672
73	goe (gone early)	DRSC19345	0.679
74	fmt (fiery mountain)	DRSC09717	0.0405
75	CG11076	DRSC17197	0.548
76	CG14760	DRSC06495	-0.736
77	THADA	DRSC19675	-0.725
78	Aef1 (Adult enhancer factor 1)	DRSC11605	-0.633
79	CG17359	DRSC10265	0.541
80	RpS7 (Ribosomal protein S7)	DRSC15394	1.81
81	mtsh (mitoshell)	DRSC03070	1.97
82	CG9459	DRSC16496	-1.82
83	CG17572	DRSC02629	-0.0865
84	dany (distal antenna-young)	DRSC04141	-1.1
85	phyl (phyllopod)	DRSC07663	1.66
86	shv (shriveled)	DRSC00640	0.253
87	shv (shriveled)	DRSC22122	-0.718
88	Dim1	DRSC00563	-1.04
89	e(y)2 (enhancer of yellow 2)	DRSC19640	0.0325
90	Zmynd8 (Zinc finger MYND-type containing 8)	DRSC15310	-1.73
91	jub (Ajuba LIM protein)	DRSC19367	2.4
92	CG17186	DRSC15180	-1.7
93	CG16717	DRSC10221	-0.055
94	dpa (disc proliferation abnormal)	DRSC07604	-0.532
95	CG10651	DRSC02086	-0.126
96	Spn43Aa (Serpin 43Aa)	DRSC06117	-0.811
97	ApepP (Aminopeptidase P)	DRSC01866	0.52
98	or (orange)	DRSC04329	-1.23
99	stnB + stnA	DRSC20969	1.28
100	stnB + stnA	DRSC21112	0.996
101	stnB + stnA	DRSC21113	1.12
102	CG5071	DRSC15710	0.165
103	CG5071	DRSC22570	1.08
104	CG7330	DRSC10813	-1.7
105	CG7330	DRSC10814	0.00504
